Data published in patent US20060189528A1.
Changes are numbered by the printed parent chain. Names and notes keep the numbering of the source. Results are given in words; binding and its absence hold for the method and conditions named. Some results given as binding are weak or reduced against the parent protein; the word gives no strength. Values belong to the binder of their own block, whether it stands above or below them.

Amino acid sequences for entries named in this document (tags omitted). Residues count along the entry.
UniProt P50591, residues 114-281: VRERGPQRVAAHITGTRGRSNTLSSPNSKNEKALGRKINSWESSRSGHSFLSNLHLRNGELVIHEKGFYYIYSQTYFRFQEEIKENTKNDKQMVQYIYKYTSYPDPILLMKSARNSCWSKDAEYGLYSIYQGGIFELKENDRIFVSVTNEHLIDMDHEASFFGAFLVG

Assays:
RANKL (human) = target: T1, RANKL (human) (UniProt O14788); assay: ELISA, RANKL coated on the plate, purified monomeric FLAG-tagged protein from E. coli in doubling dilutions, anti-FLAG detection, A450nm
T1 sequence (looked up): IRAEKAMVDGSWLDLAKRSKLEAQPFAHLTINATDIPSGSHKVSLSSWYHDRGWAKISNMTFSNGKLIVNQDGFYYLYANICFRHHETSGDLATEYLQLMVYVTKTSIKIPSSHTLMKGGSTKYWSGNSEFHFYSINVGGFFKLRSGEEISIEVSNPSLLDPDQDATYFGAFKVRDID

TRAIL (human) = TRAIL (human) (UniProt P50591); assay: ELISA, TRAIL coated on the plate, purified monomeric FLAG-tagged protein from E. coli in doubling dilutions, anti-FLAG detection, A450nm

B1: N102D (receptor, not shown: small tags and cut ends)
chain: ETFPPKYLHYDEETSHQLLCDKCPPGTYLKQHCTAKWKTVCAPCPDHYYTDSWHTSDECLYCSPVCKELQYVKQECNRTHDRVCECKEGRYLEIEFCLKHRSCPPGFGVVQAGTPERNTVCKRCPDGFFSNETSSKAPCRKHTNCSVFGLLLTQKGNATHDNICSGNSESTQK
binding (RANKL (human)): binds
binding (TRAIL (human)): binds

B4: I115T,F128V (receptor, not shown: small tags and cut ends)
chain: B1 chain with D81N, I94T, F107V
binding (RANKL (human)): binds

Now from value to binder:

binding (RANKL (human)): binds
binding (TRAIL (human)): binds
B2: R122G (receptor, not shown: small tags and cut ends)
chain: B1 chain with D81N, R101G

binding (RANKL (human)): binds
B3: I115T,K51R (receptor, not shown: small tags and cut ends)
chain: B1 chain with K30R, D81N, I94T

binding (RANKL (human)): binds
B5: WT (receptor, not shown: small tags and cut ends)
chain: B1 chain with D81N

binding (RANKL (human)): binds
B6: I115T,K51R,S167G (receptor, not shown: small tags and cut ends)
chain: B1 chain with K30R, D81N, I94T, S146G
